Results are given in words; binding and its absence hold for the method and conditions named. Binding seen in cells or lysates may run through a third protein. Here binding means that the protein was enriched with, or labelled near, the bait; the list need not be complete.
Target: glucocorticoid receptor (mouse (endogenous in FACS-isolated myeloid cells)) (UniProt P06537)
Experiment: affinity purification with mass spectrometry

Sequences of proteins named here, by UniProt entry; tags and fusion partners are left off.
UniProt P06537: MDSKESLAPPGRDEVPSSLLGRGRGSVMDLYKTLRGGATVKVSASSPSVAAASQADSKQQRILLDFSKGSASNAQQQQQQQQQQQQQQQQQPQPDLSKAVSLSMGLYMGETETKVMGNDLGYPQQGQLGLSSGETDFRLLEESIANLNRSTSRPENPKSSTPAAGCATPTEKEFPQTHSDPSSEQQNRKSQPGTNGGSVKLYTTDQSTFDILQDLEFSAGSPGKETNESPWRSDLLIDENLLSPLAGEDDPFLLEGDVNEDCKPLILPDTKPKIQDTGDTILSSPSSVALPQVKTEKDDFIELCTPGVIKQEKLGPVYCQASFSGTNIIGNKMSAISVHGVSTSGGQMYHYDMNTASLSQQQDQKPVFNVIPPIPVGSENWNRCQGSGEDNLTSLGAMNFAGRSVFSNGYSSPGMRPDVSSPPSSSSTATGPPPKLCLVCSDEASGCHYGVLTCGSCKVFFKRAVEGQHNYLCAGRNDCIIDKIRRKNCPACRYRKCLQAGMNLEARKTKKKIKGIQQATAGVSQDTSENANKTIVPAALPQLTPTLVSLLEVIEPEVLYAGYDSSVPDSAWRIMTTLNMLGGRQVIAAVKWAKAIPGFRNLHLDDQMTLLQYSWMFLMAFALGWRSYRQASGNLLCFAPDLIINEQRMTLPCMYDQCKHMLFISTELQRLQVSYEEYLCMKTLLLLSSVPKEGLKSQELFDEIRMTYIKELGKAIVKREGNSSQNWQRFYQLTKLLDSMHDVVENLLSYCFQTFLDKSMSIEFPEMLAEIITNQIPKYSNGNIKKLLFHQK
UniProt P25799: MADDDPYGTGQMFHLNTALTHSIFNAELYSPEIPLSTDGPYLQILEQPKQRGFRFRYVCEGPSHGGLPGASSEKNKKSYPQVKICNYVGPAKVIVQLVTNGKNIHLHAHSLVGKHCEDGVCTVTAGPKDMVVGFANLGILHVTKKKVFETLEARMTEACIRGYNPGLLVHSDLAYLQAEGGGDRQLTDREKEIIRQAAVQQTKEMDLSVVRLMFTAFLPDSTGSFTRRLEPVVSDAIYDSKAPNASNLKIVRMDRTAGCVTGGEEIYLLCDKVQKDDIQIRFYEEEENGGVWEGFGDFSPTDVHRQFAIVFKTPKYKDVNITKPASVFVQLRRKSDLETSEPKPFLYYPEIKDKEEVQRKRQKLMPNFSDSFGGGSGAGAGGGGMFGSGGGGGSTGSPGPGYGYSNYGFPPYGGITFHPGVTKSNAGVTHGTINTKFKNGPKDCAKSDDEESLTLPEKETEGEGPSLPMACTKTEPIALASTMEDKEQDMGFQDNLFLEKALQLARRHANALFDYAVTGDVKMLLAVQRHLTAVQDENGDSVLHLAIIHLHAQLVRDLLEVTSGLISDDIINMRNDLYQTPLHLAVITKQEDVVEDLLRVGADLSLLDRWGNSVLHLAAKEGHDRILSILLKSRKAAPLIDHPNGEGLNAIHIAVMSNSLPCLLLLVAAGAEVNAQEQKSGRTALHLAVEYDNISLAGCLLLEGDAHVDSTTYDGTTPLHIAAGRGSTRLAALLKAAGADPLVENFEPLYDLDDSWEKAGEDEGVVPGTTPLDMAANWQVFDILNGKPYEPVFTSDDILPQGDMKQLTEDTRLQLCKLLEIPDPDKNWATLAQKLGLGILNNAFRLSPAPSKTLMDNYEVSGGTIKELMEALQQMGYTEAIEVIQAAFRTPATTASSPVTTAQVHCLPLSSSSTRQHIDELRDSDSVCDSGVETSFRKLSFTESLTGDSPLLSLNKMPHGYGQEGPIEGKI
UniProt Q9JKF1: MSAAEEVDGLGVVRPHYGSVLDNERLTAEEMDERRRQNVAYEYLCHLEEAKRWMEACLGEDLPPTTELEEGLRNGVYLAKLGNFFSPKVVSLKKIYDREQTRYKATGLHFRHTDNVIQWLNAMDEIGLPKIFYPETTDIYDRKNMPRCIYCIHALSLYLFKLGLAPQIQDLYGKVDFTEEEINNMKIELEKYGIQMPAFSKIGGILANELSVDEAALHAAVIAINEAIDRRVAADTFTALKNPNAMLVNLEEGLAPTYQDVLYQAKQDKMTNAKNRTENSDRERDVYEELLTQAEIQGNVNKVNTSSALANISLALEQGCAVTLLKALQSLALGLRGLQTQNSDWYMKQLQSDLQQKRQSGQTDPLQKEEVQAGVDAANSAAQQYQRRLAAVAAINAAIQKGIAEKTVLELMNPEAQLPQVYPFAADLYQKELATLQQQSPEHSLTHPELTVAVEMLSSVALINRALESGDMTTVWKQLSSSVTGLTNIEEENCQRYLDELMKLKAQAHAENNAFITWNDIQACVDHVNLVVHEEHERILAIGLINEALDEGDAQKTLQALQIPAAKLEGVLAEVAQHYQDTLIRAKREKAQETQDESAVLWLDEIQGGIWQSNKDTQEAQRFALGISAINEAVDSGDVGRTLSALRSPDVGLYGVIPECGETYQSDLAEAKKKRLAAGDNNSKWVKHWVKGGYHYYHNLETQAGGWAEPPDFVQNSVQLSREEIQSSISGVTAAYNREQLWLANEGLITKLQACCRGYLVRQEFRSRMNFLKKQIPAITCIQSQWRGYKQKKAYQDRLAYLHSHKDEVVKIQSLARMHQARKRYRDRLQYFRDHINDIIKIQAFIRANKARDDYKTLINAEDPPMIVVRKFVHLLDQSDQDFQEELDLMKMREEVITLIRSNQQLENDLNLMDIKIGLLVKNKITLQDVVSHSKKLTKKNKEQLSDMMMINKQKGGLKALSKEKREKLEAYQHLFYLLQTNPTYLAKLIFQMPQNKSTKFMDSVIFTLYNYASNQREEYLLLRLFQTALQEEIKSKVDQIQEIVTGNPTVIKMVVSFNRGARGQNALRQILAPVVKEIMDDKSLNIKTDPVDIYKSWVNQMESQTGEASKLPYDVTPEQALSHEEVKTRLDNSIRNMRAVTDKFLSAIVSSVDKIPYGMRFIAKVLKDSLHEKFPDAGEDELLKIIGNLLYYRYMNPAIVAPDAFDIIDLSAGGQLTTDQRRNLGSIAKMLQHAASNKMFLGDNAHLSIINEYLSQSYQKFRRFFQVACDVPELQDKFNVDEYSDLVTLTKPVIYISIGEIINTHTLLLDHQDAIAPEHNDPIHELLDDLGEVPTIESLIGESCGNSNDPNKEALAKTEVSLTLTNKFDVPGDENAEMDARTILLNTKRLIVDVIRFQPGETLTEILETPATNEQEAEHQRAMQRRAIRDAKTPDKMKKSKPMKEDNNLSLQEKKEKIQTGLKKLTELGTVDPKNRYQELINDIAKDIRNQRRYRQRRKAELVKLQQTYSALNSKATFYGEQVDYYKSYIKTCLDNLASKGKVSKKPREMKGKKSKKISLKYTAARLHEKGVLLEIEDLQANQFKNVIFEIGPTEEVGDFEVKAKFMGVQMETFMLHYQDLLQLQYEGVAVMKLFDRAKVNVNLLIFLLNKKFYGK
UniProt P26039: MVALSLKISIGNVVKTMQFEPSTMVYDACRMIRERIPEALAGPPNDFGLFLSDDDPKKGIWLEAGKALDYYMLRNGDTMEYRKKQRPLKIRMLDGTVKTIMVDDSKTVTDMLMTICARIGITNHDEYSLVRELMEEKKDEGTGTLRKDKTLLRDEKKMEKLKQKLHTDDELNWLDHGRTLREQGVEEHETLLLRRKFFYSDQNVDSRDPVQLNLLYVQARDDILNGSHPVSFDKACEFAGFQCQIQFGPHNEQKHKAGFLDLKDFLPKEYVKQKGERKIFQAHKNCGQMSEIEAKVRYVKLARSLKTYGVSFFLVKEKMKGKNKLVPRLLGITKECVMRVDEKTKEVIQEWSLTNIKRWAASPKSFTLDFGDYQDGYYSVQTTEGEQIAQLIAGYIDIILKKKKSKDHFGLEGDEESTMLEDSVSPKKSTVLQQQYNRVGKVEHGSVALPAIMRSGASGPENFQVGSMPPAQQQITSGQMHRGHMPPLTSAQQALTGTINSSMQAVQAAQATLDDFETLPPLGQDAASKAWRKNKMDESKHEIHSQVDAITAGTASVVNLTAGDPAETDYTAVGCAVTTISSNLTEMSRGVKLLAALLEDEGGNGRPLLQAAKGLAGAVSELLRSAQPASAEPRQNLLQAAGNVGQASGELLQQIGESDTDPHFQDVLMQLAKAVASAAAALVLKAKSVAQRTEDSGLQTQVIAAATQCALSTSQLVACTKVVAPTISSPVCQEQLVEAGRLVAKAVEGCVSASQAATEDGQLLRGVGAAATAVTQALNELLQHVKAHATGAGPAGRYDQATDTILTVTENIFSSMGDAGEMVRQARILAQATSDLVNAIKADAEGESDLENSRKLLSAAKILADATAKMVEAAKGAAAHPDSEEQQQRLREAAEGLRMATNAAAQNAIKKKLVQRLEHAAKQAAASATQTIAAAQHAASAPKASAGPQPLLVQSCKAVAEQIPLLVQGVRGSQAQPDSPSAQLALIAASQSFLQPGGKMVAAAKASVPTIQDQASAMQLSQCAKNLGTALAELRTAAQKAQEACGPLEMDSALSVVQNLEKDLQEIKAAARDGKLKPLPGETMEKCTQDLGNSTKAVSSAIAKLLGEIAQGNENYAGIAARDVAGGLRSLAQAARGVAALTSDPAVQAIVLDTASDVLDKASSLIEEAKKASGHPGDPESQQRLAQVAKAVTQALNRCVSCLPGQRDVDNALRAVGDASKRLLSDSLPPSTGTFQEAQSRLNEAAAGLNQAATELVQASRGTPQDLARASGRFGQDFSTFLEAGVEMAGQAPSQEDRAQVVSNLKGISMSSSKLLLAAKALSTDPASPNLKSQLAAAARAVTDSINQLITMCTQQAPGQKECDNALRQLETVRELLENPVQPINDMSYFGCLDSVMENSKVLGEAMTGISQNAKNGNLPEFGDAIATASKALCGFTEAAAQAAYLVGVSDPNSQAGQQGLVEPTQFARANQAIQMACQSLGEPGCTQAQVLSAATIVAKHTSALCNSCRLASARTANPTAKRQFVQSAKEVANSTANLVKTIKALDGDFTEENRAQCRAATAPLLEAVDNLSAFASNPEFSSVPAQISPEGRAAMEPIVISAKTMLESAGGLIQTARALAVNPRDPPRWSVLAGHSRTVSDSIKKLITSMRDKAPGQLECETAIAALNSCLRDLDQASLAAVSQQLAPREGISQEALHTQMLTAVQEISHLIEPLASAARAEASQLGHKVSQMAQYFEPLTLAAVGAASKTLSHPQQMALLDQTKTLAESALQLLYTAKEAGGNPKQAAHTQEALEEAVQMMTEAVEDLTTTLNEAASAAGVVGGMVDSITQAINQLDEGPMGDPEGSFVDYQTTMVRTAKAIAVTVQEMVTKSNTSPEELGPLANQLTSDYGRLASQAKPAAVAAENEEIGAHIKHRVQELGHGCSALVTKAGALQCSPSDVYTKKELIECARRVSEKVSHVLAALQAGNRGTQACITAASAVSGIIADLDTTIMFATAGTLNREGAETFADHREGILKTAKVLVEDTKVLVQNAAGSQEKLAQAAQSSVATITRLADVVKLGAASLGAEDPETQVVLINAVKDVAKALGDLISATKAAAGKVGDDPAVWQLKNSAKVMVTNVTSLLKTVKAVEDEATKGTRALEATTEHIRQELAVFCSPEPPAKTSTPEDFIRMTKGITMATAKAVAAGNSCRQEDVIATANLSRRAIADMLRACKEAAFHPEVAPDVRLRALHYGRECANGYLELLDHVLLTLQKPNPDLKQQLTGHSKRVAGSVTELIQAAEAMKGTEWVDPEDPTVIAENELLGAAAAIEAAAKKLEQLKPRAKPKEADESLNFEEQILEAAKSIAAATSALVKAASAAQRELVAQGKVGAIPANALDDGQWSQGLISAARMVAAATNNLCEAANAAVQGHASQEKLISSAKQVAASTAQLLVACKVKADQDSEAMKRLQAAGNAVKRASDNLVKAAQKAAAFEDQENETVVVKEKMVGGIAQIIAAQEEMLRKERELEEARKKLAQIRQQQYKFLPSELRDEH

Row | Molecule | binding
1 | NRDC (from UniProt Q8BHG1) | binds
2 | NFKB1 (from UniProt P25799 1-971) | binds
3 | IQGAP1 (from UniProt Q9JKF1 1-1657) | binds
4 | TTR (from UniProt P07309 21-147) | binds
5 | ZDBF2 (from UniProt Q5SS00 1-2493) | binds
6 | TRY10 (from UniProt Q792Z1) (enzyme) | binds
7 | TLN1 (from UniProt P26039 1-2541) | binds
8 | EPX (from UniProt P49290) | binds
9 | FCGR4 (receptor, UniProt A0A0B4J1G0 21-249) GLQKAVVNLDPKWVRVLEEDSVTLRCQGTFSPEDNSIKWFHNESLIPHQDANYVIQSARVKDSGMYRCQTALSTISDPVQLEVHMGWLLLQTTKWLFQEGDPIHLRCHSWQNRPVRKVTYLQNGKGKKYFHENSELLIPKATHNDSGSYFCRGLIGHNNKSSASFRISLGDPGSPSMFPPWHQITFCLLIGLLFAIDTVLYFSVRRGLQSPVADYEEPKIQWSKEPQDK | binds
10 | Prohibitin-1 (protein, UniProt P67778 1-272) MAAKVFESIGKFGLALAVAGGVVNSALYNVDAGHRAVIFDRFRGVQDIVVGEGTHFLIPWVQKPIIFDCRSRPRNVPVITGSKDLQNVNITLRILFRPVASQLPRIYTSIGEDYDERVLPSITTEILKSVVARFDAGELITQRELVSRQVSDDLTERAATFGLILDDVSLTHLTFGKEFTEAVEAKQVAQQEAERARFVVEKAEQQKKAAIISAEGDSKAAELIANSLATAGDGLIELRKLEAAEDIAYQLSRSRNITYLPAGQSVLLQLPQ | binds
11 | RAB5C (protein, UniProt P35278 1-216) MAGRGGAARPNGPAAGNKICQFKLVLLGESAVGKSSLVLRFVKGQFHEYQESTIGAAFLTQTVCLDDTTVKFEIWDTAGQERYHSLAPMYYRGAQAAIVVYDITNTDTFARAKNWVKELQRQASPNIVIALAGNKADLASKRAVEFQEAQAYADDNSLLFMETSAKTAMNVNEIFMAIAKKLPKNEPQNAAGAPGRTRGVDLQESNPASRSQCCSN | binds

From article doi:10.1101/2025.10.29.685370
